In US12617863:
These are yes or no findings as the source states them, for the method shown. A result given as binding can be weak or reduced; the word gives no strength.

How the values were obtained:
[1] = molecular target: rabbit platelet glycoprotein I(b)α (GPIbα) on rabbit platelets (rabbit); assay: flow cytometry on platelets, FITC anti-human Kappa chain detection
[2] = molecular target: rat platelet glycoprotein I(b)α (GPIbα) on rat platelets (rat); assay: as above
[3] = molecular target: monkey platelet glycoprotein I(b)α (GPIbα) on Cynomolgus monkey platelets (Cynomolgus monkey); assay: flow cytometry on Cynomolgus monkey washed platelets, 5 µg/mL
[4] = molecular target: monkey platelet glycoprotein I(b)α (GPIbα) on Cynomolgus monkey platelets (Cynomolgus monkey); assay: flow cytometry on monkey platelets
[5] = molecular target: monkey platelet glycoprotein I(b)α (GPIbα) on Cynomolgus monkey platelets (Cynomolgus monkey); assay: flow cytometry, washed Cynomolgus monkey platelets, Fab 5 µg/mL, FITC anti-human kappa chain secondary antibody
[6] = molecular target: rabbit platelet glycoprotein I(b)α (GPIbα) on rabbit platelets (rabbit); assay: flow cytometry, rabbit platelets from PRP, FITC anti-human kappa chain detection
[7] = molecular target: rabbit platelet glycoprotein I(b)α (GPIbα) on rabbit platelets (rabbit); assay: flow cytometry on platelets, serial concentrations
[8] = molecular target: rat platelet glycoprotein I(b)α (GPIbα) on rat platelets (rat); assay: flow cytometry on platelets, serial concentrations
[9] = molecular target: recombinant hexa-histidine tagged GPIbα; assay: SPR, His-tagged GPIbα held on Ni-NTA sensor
[10] = molecular target: recombinant hexa-histidine tagged GPIbα; assay: SPR, His-tagged GPIbα immobilised on a Ni-NTA gold sensor, H001 injected at 500, 100, 50 and 10 nM
[11] = molecular target: rat platelet glycoprotein I(b)α (GPIbα) on rat platelets (rat); assay: flow cytometry, rat platelets from PRP, FITC anti-human kappa chain detection

Measured: binding

B1: humanized Fab H001 (Fab, V domains shown)
VH: QVQLVESGGGLVKPGGSLRLSCAASGFTFSSFAMSWIRQAPGKGLEWVSSITSAGTPYYPDSVLGRFTISRDNAKNSLYLQMNSLRAEDTAVYYCARSRGYEDYFDYWGQGTLVTVSS
VL: DIQMTQSPSSLSASVGDRVTITCKSSQSLLNSRNQKNYLAWYQQKPGKAPKLLIYFTSTRESGVPSRFSGSGSGTDFTLTISSLQPEDFATYYCQQHYSSPWTFGQGTKVEIKR
binds: all assays above

B2: humanized Fab H002 (Fab, V domains shown)
VH: B1 VH
VL: DIVMTQSPLSLPVTPGEPASISCKSSQSLLNSRNQKNYLAWYLQKPGQSPQLLIYFTSTRESGVPDRFSGSGSGTDFTLKISRVEAEDVGVYYCQQHYSSPWTFGQGTKVEIKR
not listed: [9] | [10]
binds: all other assays above
